Results as given in paper PMC7819943, “Rice protein-binding microarrays: a tool to detect cis-acting elements near promoter regions in rice”.
This is one part of the list.

Biological target: T1, OsSMF1 (Oryza sativa, UniProt Q6ZLB0 1-436)
T1 sequence: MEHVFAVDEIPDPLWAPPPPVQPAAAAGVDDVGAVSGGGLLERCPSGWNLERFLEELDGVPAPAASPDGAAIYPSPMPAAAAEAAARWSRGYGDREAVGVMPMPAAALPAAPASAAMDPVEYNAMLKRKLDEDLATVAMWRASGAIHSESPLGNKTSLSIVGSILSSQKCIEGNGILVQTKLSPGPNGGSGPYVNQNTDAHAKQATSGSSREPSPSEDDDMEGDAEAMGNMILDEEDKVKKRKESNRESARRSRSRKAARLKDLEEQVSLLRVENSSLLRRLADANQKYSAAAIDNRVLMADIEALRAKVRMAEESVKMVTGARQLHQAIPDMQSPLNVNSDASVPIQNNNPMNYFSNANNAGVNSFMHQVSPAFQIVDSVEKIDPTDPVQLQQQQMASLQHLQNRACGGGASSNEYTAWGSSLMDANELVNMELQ
Assay: protein-binding microarray (RPBM); PBS, 2% BSA, 51.3 ng/ul salmon testes DNA, 50 uM zinc acetate, 200 nM TF, 25 C, 1 h; high values mean tight binding
Settings: protein: recombinant; tags: N-terminal polyhistidine and DsRed monomer fusion (pET32a); chain copies: 2; label: CyDye5-dUTP incorporated in the synthesized complementary strand; 3' TTTTT single-stranded linker to array surface; dsDNA, one strand shown
Method in brief: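 A custom Agilent array was converted to double-stranded form by primer extension with Cy5-dUTP and blocked with 2% BSA. Protein at 200 nM in PBS with 2% BSA, salmon testes DNA and 50 µM zinc acetate was applied for 1 h at 25 °C, followed by washing. The proteins were polyhistidine–DsRed N-terminal fusions of transcription factors, expressed in E. coli BL21-CodonPlus and Ni–NTA-purified. The binding signal is per-feature fluorescence intensity (arbitrary units) from an Axon 4000B scanner.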

Sequence	binding signal
GAGACAGAATCCCTACTCCAGTTGTCATCACTGTATCAGACGGAGTCACCTAGTGCAG	4020 fluorescence intensity (a.u.)
GTGGCACGTGGTTACACGTGAGGAAGATGTGTCTTGTGGGCGGAGTCACCTAGTGCAG	6180 fluorescence intensity (a.u.)
TGCTTGCTACTAGCGAGACAACGAAGAAATCAGAGGATTTCGGAGTCACCTAGTGCAG	3520 fluorescence intensity (a.u.)
ACTTTCACAGCCCCTGGTGGCCAGCCCATTAGGCAGCCCACGGAGTCACCTAGTGCAG	4650 fluorescence intensity (a.u.)
CACGCCAGATCGGGATCGAGGTGTCATTAGGGTTTTCTTGCGGAGTCACCTAGTGCAG	4150 fluorescence intensity (a.u.)
GGAAAGTGATGTCACATCTAACCAATAGCAGCTTAGTCCTCGGAGTCACCTAGTGCAG	14500 fluorescence intensity (a.u.)
ACCGAAGCGCCGACGTCAGCACAGAGCGTGTTCGCCTCGACGGAGTCACCTAGTGCAG	7170 fluorescence intensity (a.u.)
GACAAGGCCTACCCAGTACCCACCTCACCCTGCCCTGCCACGGAGTCACCTAGTGCAG	4470 fluorescence intensity (a.u.)
AGCCGTACAACGTCATCCGGTTCTTCTTCCTCGCGCAGAACGGAGTCACCTAGTGCAG	3430 fluorescence intensity (a.u.)
CTTCGAGCTGTTAGATGACAAAGCTGACTCCACAACTTTTCGGAGTCACCTAGTGCAG	6340 fluorescence intensity (a.u.)
GATCACCTGCACCAGCAATGGCAACGCAAGCAAATCACAGCGGAGTCACCTAGTGCAG	3200 fluorescence intensity (a.u.)
TCCGGCGCCGCACTCCGCCACGGATTCCAGCTCGGCGAGTCGGAGTCACCTAGTGCAG	3730 fluorescence intensity (a.u.)
TGGAGTCGCTTGCGTCGCAAGCGAAGCCGGCGGCCGTGCTCGGAGTCACCTAGTGCAG	15500 fluorescence intensity (a.u.)
ACTTAACTGATCAGTAGCTACAAATGCTGACACAGCTAGGCGGAGTCACCTAGTGCAG	5020 fluorescence intensity (a.u.)
ATCAAACACACTGAGTAGCAAACCGACCTCCGCAGCTTCACGGAGTCACCTAGTGCAG	3370 fluorescence intensity (a.u.)
TAGAGTTGCCGATGCGCTCCACGTTGGTTTCCTTAAACCGCGGAGTCACCTAGTGCAG	3520 fluorescence intensity (a.u.)
TGCTGGCCTTTGGGATGACTGTATTGGTAATATGTGATCACGGAGTCACCTAGTGCAG	6830 fluorescence intensity (a.u.)
TGAGCAGCTGACTGAATGTTCTTCTAATTTTGTTAATTGGCGGAGTCACCTAGTGCAG	3800 fluorescence intensity (a.u.)
ACCAACGGTCTGACATCATTTCTAGATAGGACTTTGGTTGCGGAGTCACCTAGTGCAG	4880 fluorescence intensity (a.u.)
CCATTCAAACGGTCATCATCGTCATCTATATCTATACTAACGGAGTCACCTAGTGCAG	3340 fluorescence intensity (a.u.)
TTGATACTACTTTGTGATGTCATTGAGACAATATGGCATACGGAGTCACCTAGTGCAG	3800 fluorescence intensity (a.u.)

Quoted at random: 2 entries already listed.
Sequence	binding signal
TAGAGTTGCCGATGCGCTCCACGTTGGTTTCCTTAAACCGCGGAGTCACCTAGTGCAG	3520 fluorescence intensity (a.u.)
GAGACAGAATCCCTACTCCAGTTGTCATCACTGTATCAGACGGAGTCACCTAGTGCAG	4020 fluorescence intensity (a.u.)

(continued)

Sequence	binding signal
AAGTGGGGAGGTACTACACGCACGATCGAGAAAACACACCCGGAGTCACCTAGTGCAG	3280 fluorescence intensity (a.u.)
ACGATTTAGACAATGACATGATTTATAAAATATATCCTTGCGGAGTCACCTAGTGCAG	4060 fluorescence intensity (a.u.)
TCGTCGTCGTCGTCGTCGTCGCGCGCCCCACGAACCCTATCGGAGTCACCTAGTGCAG	3230 fluorescence intensity (a.u.)
AATGATCTTAATAACGTGACGTGACTCTTACAGTATGTAACGGAGTCACCTAGTGCAG	4880 fluorescence intensity (a.u.)
CTTCCTGTCTCACGATAGCACGCACTAGTCAGATTTTACGCGGAGTCACCTAGTGCAG	3650 fluorescence intensity (a.u.)
AGGTGGAGGCGCCGGTGTGGGTGGTGGAGCGGGAGGAGGTCGGAGTCACCTAGTGCAG	4096 fluorescence intensity (a.u.)
TCACACGGTTTTCGGTTGATGCCATGGTAACCGTCTTGCTCGGAGTCACCTAGTGCAG	3210 fluorescence intensity (a.u.)
CCCATCTCCGACTCGGATTACACGTAGGCGCGCGCCTATTCGGAGTCACCTAGTGCAG	4800 fluorescence intensity (a.u.)
CGCGTGCATTTGCATCGTCGTTGTGTCATGTCGTCAAGCTCGGAGTCACCTAGTGCAG	4500 fluorescence intensity (a.u.)
CCAGACGAGATCCACGCAGCATGTTCCTCTCTATTTCTTTCGGAGTCACCTAGTGCAG	3820 fluorescence intensity (a.u.)
GCAACAAACAAAATAACATAATATTATTCCGGACGTTATGCGGAGTCACCTAGTGCAG	3350 fluorescence intensity (a.u.)
CCCCTACGCGCACAAGGGGTTGATGCGCACCCGCAAGAAGCGGAGTCACCTAGTGCAG	13700 fluorescence intensity (a.u.)
CCACGCCGCGATATGCACACGCAGCACACGCGCCGCCAGCCGGAGTCACCTAGTGCAG	3420 fluorescence intensity (a.u.)
ATATGCGGACGCGGCACGCGGCATATGCGTCGCTCCCGGCCGGAGTCACCTAGTGCAG	4010 fluorescence intensity (a.u.)
TGTCAAAGAAGCTCACCTACCTACACATCAATTCAGTTTACGGAGTCACCTAGTGCAG	8000 fluorescence intensity (a.u.)
CCCAGCCGCGTCGCTCACTGTTTTCCTCCACCGCCGCAGTCGGAGTCACCTAGTGCAG	3570 fluorescence intensity (a.u.)
AAACTTATTTGGCCATGGTGTCATCGGGGTTGGCGTTTAGCGGAGTCACCTAGTGCAG	3860 fluorescence intensity (a.u.)
TCAACTAGTTAGTATGGGCACATTTATAGTAATCTCTAGCCGGAGTCACCTAGTGCAG	3190 fluorescence intensity (a.u.)
TCTATCCGGGTATATCCCACCAACCAATCACACCCCAAGCCGGAGTCACCTAGTGCAG	3420 fluorescence intensity (a.u.)
AATCGGTTTGAAAGCTTGTGTGTGTCTACTAGATACCAGGCGGAGTCACCTAGTGCAG	3530 fluorescence intensity (a.u.)
GAAGACGTTTAGGACAATGTTTAAGTCAAACCTTGGGAATCGGAGTCACCTAGTGCAG	9300 fluorescence intensity (a.u.)
